Compound in the experiment: Nc1ncnc2c1ncn2[C@@H]1O[C@H](COP(=O)(O)OP(=O)(O)NP(=O)(O)O)[C@@H](O)[C@H]1O [adenylyl imidodiphosphate]
The experiment can be described thus: NP40-soluble protein abundance relative to vehicle (solubility fold change) (ratio); higher = more soluble protein in presence of AMP-PNP. A digest of the protocol: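 Jurkat crude lysate prepared with a Dounce homogeniser was treated at eight concentrations spanning 0.1 to 10 mM, 10 min at room temperature then 3 min at 37 °C. Solubilisation with 0.8% NP40 and benzonase and ultracentrifugation preceded TMT labelling of the supernatant for LC-MS/MS. Fold change against the detergent-processed vehicle was determined per replicate from vsn-normalised intensities, across three independent experiments.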

By UniProt entry, the sequences of proteins in these tests, tags left out. Where a name states a change or a piece, a line headed by the entry shows the natural chain unless it says otherwise.
UniProt O15213: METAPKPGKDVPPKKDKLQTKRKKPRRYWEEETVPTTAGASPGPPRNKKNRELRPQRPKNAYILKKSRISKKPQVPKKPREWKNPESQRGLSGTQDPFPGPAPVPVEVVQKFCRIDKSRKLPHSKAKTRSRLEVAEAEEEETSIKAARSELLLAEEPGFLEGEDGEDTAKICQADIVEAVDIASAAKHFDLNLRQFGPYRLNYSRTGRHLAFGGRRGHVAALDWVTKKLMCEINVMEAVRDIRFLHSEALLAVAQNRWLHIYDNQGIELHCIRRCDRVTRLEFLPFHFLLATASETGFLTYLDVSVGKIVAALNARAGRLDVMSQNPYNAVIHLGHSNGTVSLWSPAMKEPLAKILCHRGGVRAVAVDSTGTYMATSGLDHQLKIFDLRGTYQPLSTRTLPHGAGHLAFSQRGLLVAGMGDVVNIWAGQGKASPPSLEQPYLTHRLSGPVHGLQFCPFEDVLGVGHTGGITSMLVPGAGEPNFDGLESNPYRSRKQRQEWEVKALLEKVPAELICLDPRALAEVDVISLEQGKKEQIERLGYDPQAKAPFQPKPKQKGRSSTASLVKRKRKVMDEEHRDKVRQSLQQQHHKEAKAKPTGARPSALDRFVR
UniProt Q7Z2E3: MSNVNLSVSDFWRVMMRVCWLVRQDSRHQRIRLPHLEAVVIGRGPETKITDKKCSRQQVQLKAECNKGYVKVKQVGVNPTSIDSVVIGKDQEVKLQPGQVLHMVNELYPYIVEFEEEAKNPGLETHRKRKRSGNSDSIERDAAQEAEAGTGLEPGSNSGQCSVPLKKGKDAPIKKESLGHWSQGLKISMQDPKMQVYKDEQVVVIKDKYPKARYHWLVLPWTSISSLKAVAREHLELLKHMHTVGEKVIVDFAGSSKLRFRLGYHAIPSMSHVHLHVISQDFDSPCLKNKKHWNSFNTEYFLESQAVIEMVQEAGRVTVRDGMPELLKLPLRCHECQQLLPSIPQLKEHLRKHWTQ
UniProt B7ZVY7, whole entry, looked up: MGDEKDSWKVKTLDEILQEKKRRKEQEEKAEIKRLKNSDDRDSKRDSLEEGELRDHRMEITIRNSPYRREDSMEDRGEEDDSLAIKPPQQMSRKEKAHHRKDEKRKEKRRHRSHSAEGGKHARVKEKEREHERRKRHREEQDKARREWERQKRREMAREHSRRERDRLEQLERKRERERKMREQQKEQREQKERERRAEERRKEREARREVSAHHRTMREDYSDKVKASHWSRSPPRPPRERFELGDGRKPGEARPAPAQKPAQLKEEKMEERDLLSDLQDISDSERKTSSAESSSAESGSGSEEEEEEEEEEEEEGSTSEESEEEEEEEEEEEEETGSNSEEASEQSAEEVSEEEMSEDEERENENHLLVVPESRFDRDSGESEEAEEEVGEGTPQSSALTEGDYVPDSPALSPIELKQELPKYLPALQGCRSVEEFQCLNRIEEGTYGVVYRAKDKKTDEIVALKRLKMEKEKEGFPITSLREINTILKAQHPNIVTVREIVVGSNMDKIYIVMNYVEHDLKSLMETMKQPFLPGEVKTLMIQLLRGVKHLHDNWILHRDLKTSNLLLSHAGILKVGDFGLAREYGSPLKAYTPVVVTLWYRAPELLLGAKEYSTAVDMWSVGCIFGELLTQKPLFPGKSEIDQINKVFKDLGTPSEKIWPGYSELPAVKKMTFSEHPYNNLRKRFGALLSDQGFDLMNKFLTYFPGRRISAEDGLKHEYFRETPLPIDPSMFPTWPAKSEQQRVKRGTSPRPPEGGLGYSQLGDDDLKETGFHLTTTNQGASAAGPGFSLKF
UniProt Q14978: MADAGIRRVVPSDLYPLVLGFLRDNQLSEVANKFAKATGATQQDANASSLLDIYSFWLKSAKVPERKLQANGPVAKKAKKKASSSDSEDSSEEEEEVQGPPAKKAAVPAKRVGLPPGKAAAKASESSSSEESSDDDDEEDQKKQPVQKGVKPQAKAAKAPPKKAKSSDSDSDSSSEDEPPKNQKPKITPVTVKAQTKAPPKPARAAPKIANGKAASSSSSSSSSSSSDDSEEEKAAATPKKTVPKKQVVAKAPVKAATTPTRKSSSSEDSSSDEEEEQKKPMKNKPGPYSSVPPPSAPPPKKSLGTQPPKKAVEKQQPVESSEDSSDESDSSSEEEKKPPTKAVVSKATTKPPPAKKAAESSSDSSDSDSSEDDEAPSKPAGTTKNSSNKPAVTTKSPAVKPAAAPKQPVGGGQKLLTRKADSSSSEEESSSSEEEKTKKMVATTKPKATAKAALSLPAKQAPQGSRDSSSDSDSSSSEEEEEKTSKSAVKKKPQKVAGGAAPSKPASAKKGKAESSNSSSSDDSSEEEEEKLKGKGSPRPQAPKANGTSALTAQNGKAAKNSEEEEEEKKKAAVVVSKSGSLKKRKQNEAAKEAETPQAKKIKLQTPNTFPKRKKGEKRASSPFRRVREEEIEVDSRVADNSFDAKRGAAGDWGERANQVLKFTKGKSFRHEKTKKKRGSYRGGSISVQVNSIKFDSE
UniProt P13693: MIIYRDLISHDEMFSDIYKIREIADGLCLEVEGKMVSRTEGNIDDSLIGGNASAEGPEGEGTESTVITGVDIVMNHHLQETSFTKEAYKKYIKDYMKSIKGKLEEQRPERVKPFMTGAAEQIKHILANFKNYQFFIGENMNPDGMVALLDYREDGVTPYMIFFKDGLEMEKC
UniProt Q9Y4E1, whole entry: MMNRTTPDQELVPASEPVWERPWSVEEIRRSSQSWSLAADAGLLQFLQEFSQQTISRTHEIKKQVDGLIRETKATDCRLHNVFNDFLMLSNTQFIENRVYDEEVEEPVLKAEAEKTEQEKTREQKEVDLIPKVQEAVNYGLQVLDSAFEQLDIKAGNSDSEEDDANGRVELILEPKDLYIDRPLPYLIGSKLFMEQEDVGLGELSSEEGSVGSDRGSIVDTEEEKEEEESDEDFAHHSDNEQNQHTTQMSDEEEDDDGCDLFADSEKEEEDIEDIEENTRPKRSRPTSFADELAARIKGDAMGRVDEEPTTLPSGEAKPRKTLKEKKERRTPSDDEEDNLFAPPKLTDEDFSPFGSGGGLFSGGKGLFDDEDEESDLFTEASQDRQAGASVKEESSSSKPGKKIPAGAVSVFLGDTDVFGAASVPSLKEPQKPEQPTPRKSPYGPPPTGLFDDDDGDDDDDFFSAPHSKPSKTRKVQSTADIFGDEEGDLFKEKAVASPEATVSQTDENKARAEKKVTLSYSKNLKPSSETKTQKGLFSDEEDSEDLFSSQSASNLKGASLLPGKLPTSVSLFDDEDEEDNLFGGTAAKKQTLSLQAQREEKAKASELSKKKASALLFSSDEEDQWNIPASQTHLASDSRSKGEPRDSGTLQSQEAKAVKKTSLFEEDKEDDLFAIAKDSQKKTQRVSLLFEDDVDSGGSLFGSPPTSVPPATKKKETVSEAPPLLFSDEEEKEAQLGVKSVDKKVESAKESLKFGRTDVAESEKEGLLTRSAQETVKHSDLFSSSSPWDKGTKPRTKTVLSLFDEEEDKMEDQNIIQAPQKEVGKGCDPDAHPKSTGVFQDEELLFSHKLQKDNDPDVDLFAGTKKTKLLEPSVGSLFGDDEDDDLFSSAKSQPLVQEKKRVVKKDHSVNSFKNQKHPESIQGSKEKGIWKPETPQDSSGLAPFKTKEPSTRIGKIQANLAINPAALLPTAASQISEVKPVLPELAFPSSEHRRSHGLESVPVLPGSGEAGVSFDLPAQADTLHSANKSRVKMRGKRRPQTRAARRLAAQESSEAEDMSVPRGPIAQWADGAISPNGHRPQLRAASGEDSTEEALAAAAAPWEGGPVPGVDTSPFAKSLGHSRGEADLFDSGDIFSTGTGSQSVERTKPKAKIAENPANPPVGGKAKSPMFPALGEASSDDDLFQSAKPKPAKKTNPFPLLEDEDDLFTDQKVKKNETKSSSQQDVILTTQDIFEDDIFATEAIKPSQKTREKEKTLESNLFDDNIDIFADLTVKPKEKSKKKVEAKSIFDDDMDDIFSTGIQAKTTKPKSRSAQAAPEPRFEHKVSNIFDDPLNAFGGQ
UniProt Q7Z739: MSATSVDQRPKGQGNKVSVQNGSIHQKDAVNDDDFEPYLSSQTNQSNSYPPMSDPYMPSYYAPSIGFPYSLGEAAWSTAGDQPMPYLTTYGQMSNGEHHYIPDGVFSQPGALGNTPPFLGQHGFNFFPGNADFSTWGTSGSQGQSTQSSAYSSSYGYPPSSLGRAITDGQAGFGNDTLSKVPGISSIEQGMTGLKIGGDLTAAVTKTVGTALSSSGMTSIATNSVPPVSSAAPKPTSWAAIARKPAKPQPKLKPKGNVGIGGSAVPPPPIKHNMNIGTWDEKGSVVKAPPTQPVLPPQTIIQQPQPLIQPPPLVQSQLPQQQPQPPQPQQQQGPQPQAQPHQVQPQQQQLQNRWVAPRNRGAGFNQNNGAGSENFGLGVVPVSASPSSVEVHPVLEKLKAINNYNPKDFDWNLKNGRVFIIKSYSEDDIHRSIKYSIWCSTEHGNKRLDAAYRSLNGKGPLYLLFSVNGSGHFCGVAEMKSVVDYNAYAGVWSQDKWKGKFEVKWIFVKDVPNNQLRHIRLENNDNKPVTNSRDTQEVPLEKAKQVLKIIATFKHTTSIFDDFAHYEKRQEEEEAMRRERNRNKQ
UniProt Q9Y2Y9: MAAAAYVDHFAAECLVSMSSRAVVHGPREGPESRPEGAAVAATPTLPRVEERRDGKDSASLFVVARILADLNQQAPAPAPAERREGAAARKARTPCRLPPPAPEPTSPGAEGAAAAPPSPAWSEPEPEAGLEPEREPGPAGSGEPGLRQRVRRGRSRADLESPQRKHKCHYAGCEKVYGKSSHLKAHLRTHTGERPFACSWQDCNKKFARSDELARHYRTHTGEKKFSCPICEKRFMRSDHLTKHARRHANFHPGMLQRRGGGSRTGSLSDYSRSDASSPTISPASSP
UniProt Q6NVY1: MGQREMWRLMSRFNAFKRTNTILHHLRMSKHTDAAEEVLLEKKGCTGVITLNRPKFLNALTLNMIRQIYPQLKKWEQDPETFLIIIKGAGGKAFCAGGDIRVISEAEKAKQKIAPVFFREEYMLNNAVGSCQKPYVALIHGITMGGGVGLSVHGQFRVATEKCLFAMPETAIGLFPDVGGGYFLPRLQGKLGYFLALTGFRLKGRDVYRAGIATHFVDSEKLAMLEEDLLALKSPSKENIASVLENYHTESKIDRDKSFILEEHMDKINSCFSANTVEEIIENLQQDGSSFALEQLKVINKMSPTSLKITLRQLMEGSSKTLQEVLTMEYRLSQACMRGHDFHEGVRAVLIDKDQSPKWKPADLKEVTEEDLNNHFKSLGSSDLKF
UniProt Q96RT8, whole entry: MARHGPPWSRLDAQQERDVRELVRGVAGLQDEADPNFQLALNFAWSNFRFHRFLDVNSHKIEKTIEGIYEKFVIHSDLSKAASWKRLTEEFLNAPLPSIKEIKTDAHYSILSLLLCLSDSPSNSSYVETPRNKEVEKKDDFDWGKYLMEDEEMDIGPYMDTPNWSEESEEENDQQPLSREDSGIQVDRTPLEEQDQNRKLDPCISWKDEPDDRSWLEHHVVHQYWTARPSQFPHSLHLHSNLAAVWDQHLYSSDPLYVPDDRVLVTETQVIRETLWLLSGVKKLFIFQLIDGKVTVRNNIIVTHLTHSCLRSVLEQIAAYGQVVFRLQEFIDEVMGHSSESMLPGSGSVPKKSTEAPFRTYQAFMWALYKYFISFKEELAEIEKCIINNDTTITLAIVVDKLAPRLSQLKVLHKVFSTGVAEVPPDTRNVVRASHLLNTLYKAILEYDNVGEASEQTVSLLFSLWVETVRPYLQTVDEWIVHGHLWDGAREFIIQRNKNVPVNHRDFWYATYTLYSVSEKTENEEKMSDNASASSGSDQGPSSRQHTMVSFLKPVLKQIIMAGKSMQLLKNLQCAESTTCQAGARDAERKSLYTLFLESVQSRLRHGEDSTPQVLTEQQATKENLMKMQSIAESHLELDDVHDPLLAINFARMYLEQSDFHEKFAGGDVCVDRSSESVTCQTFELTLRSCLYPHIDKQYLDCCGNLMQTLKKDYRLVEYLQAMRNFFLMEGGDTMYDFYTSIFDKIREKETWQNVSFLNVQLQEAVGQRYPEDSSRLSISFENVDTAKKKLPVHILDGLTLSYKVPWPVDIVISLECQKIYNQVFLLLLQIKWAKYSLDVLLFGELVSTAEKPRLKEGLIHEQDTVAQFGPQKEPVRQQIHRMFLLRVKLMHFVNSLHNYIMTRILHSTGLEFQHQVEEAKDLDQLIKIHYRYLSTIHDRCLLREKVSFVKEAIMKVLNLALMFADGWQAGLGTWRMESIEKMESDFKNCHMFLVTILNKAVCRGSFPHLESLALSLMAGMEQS
UniProt O00142: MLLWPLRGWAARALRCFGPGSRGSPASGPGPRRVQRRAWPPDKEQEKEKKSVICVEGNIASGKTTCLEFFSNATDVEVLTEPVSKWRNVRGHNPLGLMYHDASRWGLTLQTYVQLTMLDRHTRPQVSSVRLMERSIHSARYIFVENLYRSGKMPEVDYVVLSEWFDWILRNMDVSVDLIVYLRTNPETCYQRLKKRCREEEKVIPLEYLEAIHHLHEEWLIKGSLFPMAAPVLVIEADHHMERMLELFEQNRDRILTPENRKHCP

± gives the standard deviation of the averaged measurements. The entries are a selection whose mix differs from that of the whole data set. Small differences around the control level are noise.

As to “A0A5E8 and related entries (UniProt Q99501)”, the NP40-soluble protein abundance reads like this: (concentration: 0.1mM) 1.016 ± 0.0031; (concentration: 0.5mM) 1.02 ± 0.019.

Take SH3PXD2B (UniProt A1X283): the NP40-soluble protein abundance turned out to be 1.01 ± 0.018 (concentration: 0.1mM) and 0.972 ± 0.038 (concentration: 0.5mM).

A0A140T9L0|O15213 (UniProt O15213): the NP40-soluble protein abundance came to 0.9692 ± 0.0026 (concentration: 0.1mM) and 1.01 ± 0.05 (concentration: 0.5mM).

Turning to “A0A0A0MRW7|Q7Z2E3 and related entries (UniProt Q7Z2E3)”, the NP40-soluble protein abundance runs as follows: (concentration: 0.1mM) 0.986 ± 0.05; (concentration: 0.5mM) 1.01 ± 0.028.

Consider A0A0A0MRS4|Q9NVV0 (UniProt Q9NVV0), for which the NP40-soluble protein abundance (concentration: 0.1mM) came out at 0.9993 ± 0.0054 and the NP40-soluble protein abundance (concentration: 0.5mM) amounted to 1.08 ± 0.032.

Regarding “A0A0D9SEI3|A0A0D9SEN2|A0A0D9SER5|B7ZVY7 and related entries (UniProt J3QR44+P21127+B7ZVY7)”, the NP40-soluble protein abundance turned out to be 0.984 ± 0.021 (concentration: 0.1mM) and 0.9724 ± 0.0021 (concentration: 0.5mM).

On to “A0A0U1RRM6|Q8N8S7 and related entries (UniProt Q8N8S7)”, for which the NP40-soluble protein abundance (concentration: 0.1mM) worked out at 0.99 ± 0.029 and the NP40-soluble protein abundance (concentration: 0.5mM) amounted to 0.99 ± 0.065.

On to “A0A0C4DGS5|B7ZC06 and related entries (UniProt Q08379)”, for which the NP40-soluble protein abundance amounted to 1.01 ± 0.038 (concentration: 0.1mM) and 1.01 ± 0.028 (concentration: 0.5mM).

As to “A0A0A0MRM9|Q14978-2|Q14978 and related entries (UniProt Q14978)”, the NP40-soluble protein abundance is, setting by setting: (concentration: 0.1mM) 0.933 ± 0.013; (concentration: 0.5mM) 1.06 ± 0.085.

For A0A0A0MRN1|Q5T8I9 (UniProt Q5T8I9), the NP40-soluble protein abundance (concentration: 0.1mM) came out at 0.993 ± 0.0044 and the NP40-soluble protein abundance (concentration: 0.5mM) was 1.006 ± 0.0095.

For the target “A0A0B4J1V9|Q9NRZ9 and related entries (UniProt Q9NRZ9)”, the NP40-soluble protein abundance worked out at 1.03 ± 0.03 (concentration: 0.1mM) and 0.991 ± 0.044 (concentration: 0.5mM).

Turning to “A0A0A0MSM3|P46939 and related entries (UniProt P46939)”, the NP40-soluble protein abundance by setting is: (concentration: 0.1mM) 0.983 ± 0.016; (concentration: 0.5mM) 0.991 ± 0.029.

For the target “A0A0B4J2C3|P13693 and related entries (UniProt P13693)”, the NP40-soluble protein abundance is 0.958 ± 0.043 (concentration: 0.1mM) and 0.991 ± 0.039 (concentration: 0.5mM).

On to “A0A096LPC5|A0A0A0MR88|Q9Y4E1 and related entries (UniProt Q9Y4E1)”, for which the NP40-soluble protein abundance (concentration: 0.1mM) came to 1 ± 0.011 and the NP40-soluble protein abundance (concentration: 0.5mM) turned out to be 1.01 ± 0.055.

As to A0A087X0Q1|Q7Z739 (UniProt Q7Z739), the NP40-soluble protein abundance (concentration: 0.1mM) was 0.986 ± 0.023 and the NP40-soluble protein abundance (concentration: 0.5mM) is 1 ± 0.047.

Regarding “A0A087X1K6|H0YK05 and related entries (UniProt Q9Y2Y9)”, the NP40-soluble protein abundance was 1.05 ± 0.04 (concentration: 0.1mM) and 0.979 ± 0.031 (concentration: 0.5mM).

With A0A087WXI1|Q6NVY1 (UniProt Q6NVY1), the NP40-soluble protein abundance reads like this: (concentration: 0.1mM) 1.01 ± 0.021; (concentration: 0.5mM) 1.01 ± 0.035.

Turning to “A0A0D9SFL3|B0QYK0 and related entries (UniProt Q01844)”, the NP40-soluble protein abundance (concentration: 0.1mM) was found to be 0.981 ± 0.011 and the NP40-soluble protein abundance (concentration: 0.5mM) is 1.01 ± 0.022.

In the case of A0A087X1N2|Q03701 (UniProt Q03701), the NP40-soluble protein abundance reads like this: (concentration: 0.1mM) 1.01 ± 0.032; (concentration: 0.5mM) 1.01 ± 0.034.

On to “A0A087X1Z1|A0A0G2JPW5|A0A0G2JQX1|A0A0G2JSA7|Q96RT8 and related entries (UniProt Q96RT8)”, for which the NP40-soluble protein abundance (concentration: 0.1mM) stood at 1.006 ± 0.0012 and the NP40-soluble protein abundance (concentration: 0.5mM) is 1.01 ± 0.056.

Consider “A0A0A0MSI2|B3KPJ4 and related entries (UniProt Q8IXK0)”, for which the NP40-soluble protein abundance (concentration: 0.1mM) came out at 0.998 ± 0.03 and the NP40-soluble protein abundance (concentration: 0.5mM) was found to be 1.01 ± 0.026.

For “A0A0A0MSY7|E5KNQ5 and related entries (UniProt O00142)”, the NP40-soluble protein abundance runs as follows: (concentration: 0.1mM) 1.01 ± 0.053; (concentration: 0.5mM) 0.991 ± 0.044.

Regarding “A0A0C4DFN8|P22570 and related entries (UniProt P22570)”, the NP40-soluble protein abundance by setting is: (concentration: 0.1mM) 0.99 ± 0.021; (concentration: 0.5mM) 0.989 ± 0.013.

For the target “A0A0C4DG40|Q8NF91 and related entries (UniProt Q8NF91)”, the NP40-soluble protein abundance (concentration: 0.1mM) was found to be 0.97 ± 0.02 and the NP40-soluble protein abundance (concentration: 0.5mM) was 0.951 ± 0.02.

Turning to “A0A0A0MRF6|Q99996 and related entries (UniProt Q99996)”, the NP40-soluble protein abundance (concentration: 0.1mM) is 1.02 ± 0.016 and the NP40-soluble protein abundance (concentration: 0.5mM) turned out to be 1 ± 0.043.

Regarding A0A087X256|Q2M389 (UniProt Q2M389), the NP40-soluble protein abundance runs as follows: (concentration: 0.1mM) 1.01 ± 0.035; (concentration: 0.5mM) 1.02 ± 0.055.

The values are drawn from the supplement of paper PMC6411743.
